Source: the supplement of paper PMC10849652
The other results are listed elsewhere or left out.

The chains behind the UniProt entries cited, without tags or fusion partners. Where a name states a change or a piece, a line headed by the entry shows the natural chain unless it says otherwise.
UniProt Q9UPN6: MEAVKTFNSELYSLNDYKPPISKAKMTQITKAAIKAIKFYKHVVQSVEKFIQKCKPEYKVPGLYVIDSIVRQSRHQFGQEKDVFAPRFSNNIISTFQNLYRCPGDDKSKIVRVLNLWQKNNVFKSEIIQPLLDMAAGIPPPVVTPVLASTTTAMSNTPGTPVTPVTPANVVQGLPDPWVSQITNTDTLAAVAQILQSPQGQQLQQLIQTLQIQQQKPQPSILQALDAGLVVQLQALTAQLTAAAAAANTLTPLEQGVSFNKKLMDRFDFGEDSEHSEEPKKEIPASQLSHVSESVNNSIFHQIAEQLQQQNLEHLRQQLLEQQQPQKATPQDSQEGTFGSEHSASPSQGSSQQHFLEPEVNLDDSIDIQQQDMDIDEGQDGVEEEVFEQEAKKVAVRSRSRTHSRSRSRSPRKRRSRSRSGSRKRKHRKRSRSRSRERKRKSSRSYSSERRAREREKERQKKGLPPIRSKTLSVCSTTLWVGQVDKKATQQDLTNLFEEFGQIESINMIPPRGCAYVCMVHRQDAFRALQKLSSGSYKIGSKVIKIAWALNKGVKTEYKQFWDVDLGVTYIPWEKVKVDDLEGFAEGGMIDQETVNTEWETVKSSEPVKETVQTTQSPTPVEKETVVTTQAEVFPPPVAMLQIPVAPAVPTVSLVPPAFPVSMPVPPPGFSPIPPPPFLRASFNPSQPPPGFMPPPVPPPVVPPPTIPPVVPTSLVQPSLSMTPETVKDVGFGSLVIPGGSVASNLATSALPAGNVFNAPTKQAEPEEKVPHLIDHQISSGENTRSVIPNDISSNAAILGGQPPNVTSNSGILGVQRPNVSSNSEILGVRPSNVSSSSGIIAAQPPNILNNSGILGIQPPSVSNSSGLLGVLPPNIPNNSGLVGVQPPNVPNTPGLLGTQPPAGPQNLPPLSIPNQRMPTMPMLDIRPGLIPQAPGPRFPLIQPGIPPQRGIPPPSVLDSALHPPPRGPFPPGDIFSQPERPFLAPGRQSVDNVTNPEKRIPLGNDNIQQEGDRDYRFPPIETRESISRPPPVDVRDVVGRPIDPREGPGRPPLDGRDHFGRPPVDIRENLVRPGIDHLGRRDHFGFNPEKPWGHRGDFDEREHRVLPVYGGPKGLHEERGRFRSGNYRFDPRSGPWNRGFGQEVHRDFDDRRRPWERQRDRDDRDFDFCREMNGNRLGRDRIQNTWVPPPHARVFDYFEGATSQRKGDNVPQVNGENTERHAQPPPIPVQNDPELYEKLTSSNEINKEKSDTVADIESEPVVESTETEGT
UniProt Q8WWV3: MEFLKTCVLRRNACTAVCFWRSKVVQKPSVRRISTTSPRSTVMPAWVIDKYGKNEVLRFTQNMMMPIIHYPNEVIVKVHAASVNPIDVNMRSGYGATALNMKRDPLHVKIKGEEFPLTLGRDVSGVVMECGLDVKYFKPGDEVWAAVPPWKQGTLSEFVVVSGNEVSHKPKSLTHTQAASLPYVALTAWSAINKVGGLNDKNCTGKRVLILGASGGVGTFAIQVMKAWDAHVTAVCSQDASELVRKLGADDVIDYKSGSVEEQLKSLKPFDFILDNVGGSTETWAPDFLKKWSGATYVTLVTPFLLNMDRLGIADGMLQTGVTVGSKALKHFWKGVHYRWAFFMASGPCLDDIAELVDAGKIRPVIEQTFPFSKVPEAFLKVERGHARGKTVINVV
UniProt P55735: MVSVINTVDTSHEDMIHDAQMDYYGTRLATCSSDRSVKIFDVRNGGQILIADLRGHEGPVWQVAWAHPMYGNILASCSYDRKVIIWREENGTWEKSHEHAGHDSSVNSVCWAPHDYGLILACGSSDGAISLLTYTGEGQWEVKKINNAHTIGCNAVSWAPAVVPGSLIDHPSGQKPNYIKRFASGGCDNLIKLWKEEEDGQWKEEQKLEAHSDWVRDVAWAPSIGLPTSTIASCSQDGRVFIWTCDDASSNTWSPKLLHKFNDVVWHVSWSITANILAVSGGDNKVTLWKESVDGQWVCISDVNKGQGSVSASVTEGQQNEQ
UniProt Q96ER3: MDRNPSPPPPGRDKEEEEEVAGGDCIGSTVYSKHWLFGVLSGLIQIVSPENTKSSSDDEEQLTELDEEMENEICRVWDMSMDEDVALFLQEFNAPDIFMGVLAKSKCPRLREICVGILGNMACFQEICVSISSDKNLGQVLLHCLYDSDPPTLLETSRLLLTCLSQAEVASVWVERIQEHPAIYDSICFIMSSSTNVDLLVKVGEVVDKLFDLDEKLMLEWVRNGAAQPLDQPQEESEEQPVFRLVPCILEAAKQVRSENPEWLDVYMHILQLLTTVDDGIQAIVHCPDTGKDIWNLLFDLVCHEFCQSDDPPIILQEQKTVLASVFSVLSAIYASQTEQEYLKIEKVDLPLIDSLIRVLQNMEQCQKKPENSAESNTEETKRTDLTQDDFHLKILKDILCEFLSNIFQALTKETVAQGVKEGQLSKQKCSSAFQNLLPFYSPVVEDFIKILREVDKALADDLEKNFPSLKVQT
UniProt Q9NTJ5: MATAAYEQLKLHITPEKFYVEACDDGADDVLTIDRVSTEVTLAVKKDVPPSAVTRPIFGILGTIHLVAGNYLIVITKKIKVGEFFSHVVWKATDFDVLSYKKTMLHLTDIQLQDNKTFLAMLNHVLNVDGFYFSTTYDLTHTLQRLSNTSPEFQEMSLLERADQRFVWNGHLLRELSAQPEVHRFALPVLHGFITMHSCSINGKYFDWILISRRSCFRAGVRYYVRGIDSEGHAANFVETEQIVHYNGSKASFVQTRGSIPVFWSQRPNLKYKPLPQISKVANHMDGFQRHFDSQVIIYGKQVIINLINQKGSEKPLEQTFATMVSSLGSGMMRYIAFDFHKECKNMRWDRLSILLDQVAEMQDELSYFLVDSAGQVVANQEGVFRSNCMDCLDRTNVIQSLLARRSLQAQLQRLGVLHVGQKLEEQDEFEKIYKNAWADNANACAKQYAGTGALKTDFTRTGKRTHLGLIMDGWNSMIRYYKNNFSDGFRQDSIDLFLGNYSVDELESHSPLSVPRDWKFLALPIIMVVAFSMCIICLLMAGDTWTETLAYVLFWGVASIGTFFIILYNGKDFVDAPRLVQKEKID
UniProt Q9Y6Y8: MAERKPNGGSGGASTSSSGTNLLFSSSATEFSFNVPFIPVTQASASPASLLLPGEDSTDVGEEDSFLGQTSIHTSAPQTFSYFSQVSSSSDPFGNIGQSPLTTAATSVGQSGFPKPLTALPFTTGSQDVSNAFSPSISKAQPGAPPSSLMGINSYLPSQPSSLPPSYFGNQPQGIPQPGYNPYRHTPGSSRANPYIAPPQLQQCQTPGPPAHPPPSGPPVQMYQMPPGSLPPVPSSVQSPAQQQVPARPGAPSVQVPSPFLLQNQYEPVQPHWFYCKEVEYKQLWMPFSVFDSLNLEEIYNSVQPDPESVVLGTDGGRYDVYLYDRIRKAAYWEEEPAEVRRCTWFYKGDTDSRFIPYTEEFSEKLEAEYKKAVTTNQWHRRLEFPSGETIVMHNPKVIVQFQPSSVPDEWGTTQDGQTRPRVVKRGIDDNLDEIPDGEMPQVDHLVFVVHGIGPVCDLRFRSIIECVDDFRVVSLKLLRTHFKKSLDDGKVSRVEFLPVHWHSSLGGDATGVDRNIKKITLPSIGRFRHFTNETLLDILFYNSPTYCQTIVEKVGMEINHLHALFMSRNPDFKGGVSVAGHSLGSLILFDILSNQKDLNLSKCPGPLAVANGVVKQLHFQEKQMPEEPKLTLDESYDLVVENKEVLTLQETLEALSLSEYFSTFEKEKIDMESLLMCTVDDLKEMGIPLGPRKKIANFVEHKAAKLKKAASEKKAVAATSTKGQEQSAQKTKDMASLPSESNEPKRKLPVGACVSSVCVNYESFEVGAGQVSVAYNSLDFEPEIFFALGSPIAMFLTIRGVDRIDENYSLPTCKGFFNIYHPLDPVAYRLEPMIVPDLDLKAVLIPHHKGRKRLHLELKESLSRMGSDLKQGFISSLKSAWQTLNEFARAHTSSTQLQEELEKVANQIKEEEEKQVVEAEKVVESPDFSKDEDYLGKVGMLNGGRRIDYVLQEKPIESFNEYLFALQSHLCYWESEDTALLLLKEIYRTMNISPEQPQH
UniProt O43818: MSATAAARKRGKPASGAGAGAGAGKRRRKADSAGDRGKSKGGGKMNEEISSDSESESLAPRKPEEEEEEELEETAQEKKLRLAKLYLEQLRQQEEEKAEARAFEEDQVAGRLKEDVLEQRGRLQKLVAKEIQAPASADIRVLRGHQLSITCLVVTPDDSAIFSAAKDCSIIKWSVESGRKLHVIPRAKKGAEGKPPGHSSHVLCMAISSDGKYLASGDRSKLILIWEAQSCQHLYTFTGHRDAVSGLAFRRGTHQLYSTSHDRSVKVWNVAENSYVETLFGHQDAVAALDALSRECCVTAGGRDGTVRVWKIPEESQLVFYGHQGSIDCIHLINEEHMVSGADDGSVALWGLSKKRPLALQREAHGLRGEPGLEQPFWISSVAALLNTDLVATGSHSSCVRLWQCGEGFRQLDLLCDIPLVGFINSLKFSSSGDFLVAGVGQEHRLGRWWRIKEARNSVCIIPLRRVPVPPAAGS
UniProt Q96BU1: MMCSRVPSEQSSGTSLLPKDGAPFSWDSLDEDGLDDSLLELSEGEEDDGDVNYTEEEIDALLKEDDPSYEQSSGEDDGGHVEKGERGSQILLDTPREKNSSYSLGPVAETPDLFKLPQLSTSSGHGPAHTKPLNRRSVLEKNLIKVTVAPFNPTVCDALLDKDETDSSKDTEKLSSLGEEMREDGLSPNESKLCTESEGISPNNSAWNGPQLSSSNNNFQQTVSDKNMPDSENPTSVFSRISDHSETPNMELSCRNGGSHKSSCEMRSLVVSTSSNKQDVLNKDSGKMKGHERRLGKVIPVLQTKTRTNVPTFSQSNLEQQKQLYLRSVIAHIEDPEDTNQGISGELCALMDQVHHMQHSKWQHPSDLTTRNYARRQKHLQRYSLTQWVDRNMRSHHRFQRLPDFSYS
UniProt Q5JTH9: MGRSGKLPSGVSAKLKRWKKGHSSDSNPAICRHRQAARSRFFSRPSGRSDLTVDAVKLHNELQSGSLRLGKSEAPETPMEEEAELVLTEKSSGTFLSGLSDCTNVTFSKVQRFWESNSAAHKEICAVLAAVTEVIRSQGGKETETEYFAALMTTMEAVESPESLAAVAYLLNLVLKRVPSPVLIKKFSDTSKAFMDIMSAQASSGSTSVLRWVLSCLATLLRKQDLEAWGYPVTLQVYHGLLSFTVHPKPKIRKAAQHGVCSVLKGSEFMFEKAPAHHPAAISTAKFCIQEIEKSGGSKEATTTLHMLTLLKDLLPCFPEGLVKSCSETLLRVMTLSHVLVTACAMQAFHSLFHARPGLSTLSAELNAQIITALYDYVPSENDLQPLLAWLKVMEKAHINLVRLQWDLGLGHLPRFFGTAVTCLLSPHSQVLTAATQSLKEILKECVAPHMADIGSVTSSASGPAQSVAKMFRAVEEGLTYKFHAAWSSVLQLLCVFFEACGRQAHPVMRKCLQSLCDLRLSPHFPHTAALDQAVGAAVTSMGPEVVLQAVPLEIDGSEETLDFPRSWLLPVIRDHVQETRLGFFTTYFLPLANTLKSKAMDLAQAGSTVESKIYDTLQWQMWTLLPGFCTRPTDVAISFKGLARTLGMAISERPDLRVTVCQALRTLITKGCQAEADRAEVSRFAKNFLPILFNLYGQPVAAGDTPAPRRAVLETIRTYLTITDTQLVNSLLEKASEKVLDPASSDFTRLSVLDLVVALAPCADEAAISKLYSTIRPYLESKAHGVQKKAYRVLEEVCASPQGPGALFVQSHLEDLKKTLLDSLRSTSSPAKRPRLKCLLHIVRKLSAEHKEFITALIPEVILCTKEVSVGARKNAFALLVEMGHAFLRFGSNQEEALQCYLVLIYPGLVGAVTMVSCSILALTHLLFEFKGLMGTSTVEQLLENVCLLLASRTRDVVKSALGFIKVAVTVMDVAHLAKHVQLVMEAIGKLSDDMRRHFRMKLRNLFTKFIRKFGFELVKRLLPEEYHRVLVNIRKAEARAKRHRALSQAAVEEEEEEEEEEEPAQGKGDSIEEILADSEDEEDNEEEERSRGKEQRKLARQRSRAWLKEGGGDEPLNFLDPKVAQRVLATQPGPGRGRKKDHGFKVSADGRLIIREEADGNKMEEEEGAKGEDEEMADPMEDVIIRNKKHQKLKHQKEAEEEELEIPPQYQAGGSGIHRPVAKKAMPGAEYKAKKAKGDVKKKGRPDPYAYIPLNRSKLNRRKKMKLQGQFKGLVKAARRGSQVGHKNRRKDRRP
UniProt Q9UBE0: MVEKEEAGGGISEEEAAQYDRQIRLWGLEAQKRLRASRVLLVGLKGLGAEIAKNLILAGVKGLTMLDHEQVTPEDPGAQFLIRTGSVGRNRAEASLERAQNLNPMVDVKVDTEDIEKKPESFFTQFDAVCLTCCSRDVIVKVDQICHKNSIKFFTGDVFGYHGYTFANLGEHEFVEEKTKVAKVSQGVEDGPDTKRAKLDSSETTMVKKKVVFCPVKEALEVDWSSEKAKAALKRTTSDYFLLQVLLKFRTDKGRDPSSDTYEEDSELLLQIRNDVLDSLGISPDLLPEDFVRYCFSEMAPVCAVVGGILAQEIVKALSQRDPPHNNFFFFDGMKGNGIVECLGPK

How the values were obtained:
Experiment in all cases: log2 fold change, soluble protein after heating vs DMSO (PISA); higher = thermal stabilisation; K562 cells, 10 uM, 30 min; active = over 0.2 and 3.5 SD of the protein, either way, in both replicates (recomputed)
[1] = compound: CS(=O)(=O)c1ccc(-c2cnc(N)c(C(=O)Nc3ccccc3)n2)cc1
Method in brief: (§1)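 K562 cells at 2×10^6 cells/mL were treated for 30 min with 10 μM compound, and aliquots were heated for 3 min over 48°C-58°C before pooling. Extraction used PBS with 0.5% NP-40 at 4°C, and soluble protein was the supernatant after 21,000xg for 90 min, measured by TMTpro 16plex LC-MS/MS with channel sums equalised. Thermal stability values, relative to control samples and from duplicates, are log2 fold changes.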

crizotinib = compound: C[C@@H](Oc1cc(-c2cnn(C3CCNCC3)c2)cnc1N)c1c(Cl)ccc(F)c1Cl [crizotinib]
Method in brief: as §1

[2] = compound: C[C@@H]1COCCN1C2=NC(=NC(=C2)C3(CC3)S(=O)(=O)C)C4=C5C=CNC5=CC=C4
Method in brief: as §1

[3] = compound: C[C@H](C1=CC=C(C=C1)C(=O)NC2=C3C=CNC3=NC=C2)N
Method in brief: as §1

gandotinib = compound: Cc1cc(Nc2cc(CN3CCOCC3)c3nc(C)c(Cc4ccc(Cl)cc4F)n3n2)n[nH]1 [gandotinib]
Method in brief: as §1

[4] = compound: Cc1cc(SCc2sc(-c3ccc(C(F)(F)F)cc3)nc2C)ccc1OCC(=O)O
Method in brief: as §1

doramapimod = compound: Cc1ccc(-n2nc(C(C)(C)C)cc2NC(=O)Nc2ccc(OCCN3CCOCC3)c3ccccc23)cc1 [doramapimod]
Method in brief: as §1

ispinesib = compound: Cc1ccc(C(=O)N(CCCN)[C@@H](c2nc3cc(Cl)ccc3c(=O)n2Cc2ccccc2)C(C)C)cc1 [ispinesib]
Method in brief: as §1

bafetinib = compound: Cc1ccc(NC(=O)c2ccc(CN3CC[C@H](N(C)C)C3)c(C(F)(F)F)c2)cc1Nc1nccc(-c2cncnc2)n1 [bafetinib]
Method in brief: as §1

[5] = compound: Cc1cccc(CC(=O)N2CCc3c2ccc(-c2cn(C)c4ncnc(N)c24)c3F)n1
Method in brief: as §1

nilotinib = compound: Cc1cn(-c2cc(NC(=O)c3ccc(C)c(Nc4nccc(-c5cccnc5)n4)c3)cc(C(F)(F)F)c2)cn1 [nilotinib]
Method in brief: as §1

[6] = compound: Cc1nc(Nc2n[nH]c3c2CN(C(=O)N[C@H](CN(C)C)c2ccccc2)C3(C)C)c2sccc2n1
Method in brief: as §1

dasatinib = compound: Cc1nc(Nc2ncc(C(=O)Nc3c(C)cccc3Cl)s2)cc(N2CCN(CCO)CC2)n1 [dasatinib]
Method in brief: as §1

[7] = compound: Cc1ncc(-c2ccnc(Nc3ccc(S(C)(=O)=O)cc3)n2)n1C(C)C
Method in brief: as §1

[8] = compound: Cn1cc(-c2ccc3c(c2)CCN3C(=O)Cc2cccc(C(F)(F)F)c2)c2c(N)ncnc21
Method in brief: as §1

[9] = compound: Cn1cc(-c2ccc3nnc(C(F)(F)c4ccc5ncccc5c4)n3n2)cn1
Method in brief: as §1

tipifarnib = compound: Cn1cncc1[C@@](N)(c1ccc(Cl)cc1)c1ccc2c(c1)c(-c1cccc(Cl)c1)cc(=O)n2C [tipifarnib]
Method in brief: as §1

mubritinib = compound: FC(F)(F)c1ccc(/C=C/c2nc(COc3ccc(CCCCn4ccnn4)cc3)co2)cc1 [mubritinib]
Method in brief: as §1

duvelisib = compound: C[C@H](Nc1ncnc2nc[nH]c12)c1cc2cccc(Cl)c2c(=O)n1-c1ccccc1 [duvelisib]
Method in brief: as §1

tozasertib = compound: Cc1cc(Nc2cc(N3CCN(C)CC3)nc(Sc3ccc(NC(=O)C4CC4)cc3)n2)n[nH]1 [tozasertib]
Method in brief: as §1

Target	log2 fold change [1]	log2 fold change (crizotinib)	log2 fold change [2]	log2 fold change [3]	log2 fold change (gandotinib)	log2 fold change [4]	log2 fold change (doramapimod)	log2 fold change (ispinesib)	log2 fold change (bafetinib)	log2 fold change [5]	log2 fold change (nilotinib)	log2 fold change [6]	log2 fold change (dasatinib)	log2 fold change [7]	log2 fold change [8]	log2 fold change [9]	log2 fold change (tipifarnib)	log2 fold change (mubritinib)	log2 fold change (duvelisib)	log2 fold change (tozasertib)
SCAF8 isoform 2 (UniProt Q9UPN6)	inactive: 0.085	inactive: -0.011	inactive: 0.1	inactive: -0.018	inactive: -0.098	inactive: 0.065	inactive: 0.003	inactive: -0.181	inactive: -0.024	inactive: 0.019	inactive: -0.032	inactive: -0.208	inactive: -0.212	inactive: 0.069	inactive: 0.064	inactive: 0.008	inactive: -0.027	inactive: 0.023		
RTN4IP1 (UniProt Q8WWV3)	inactive: 0.015	inactive: -0.084	inactive: 0.064	inactive: -0.045	inactive: 0.117	inactive: 0.225	inactive: 0.041	inactive: -0.137	inactive: -0.178	inactive: -0.07	inactive: 0.171	inactive: -0.194	inactive: 0.189	inactive: -0.008	inactive: 0.121	inactive: 0.168	inactive: 0.041	inactive: 0.122		
SEC13 isoform 3 (UniProt P55735)	inactive: 0.022	inactive: -0.014	inactive: -0.021	inactive: -0.045	inactive: -0.054	inactive: 0.007	inactive: -0.068	inactive: 0.045	inactive: -0.029	inactive: 0.045	inactive: -0.036	inactive: -0.019	inactive: -0.007	inactive: -0.02	inactive: -0.035	inactive: 0.027	inactive: -0.079	inactive: 0.049	inactive: -0.02	inactive: 0.02
SAAL1 (UniProt Q96ER3)	inactive: 0.013	inactive: -0.129	inactive: 0.047	inactive: 0.008	inactive: 0.022	inactive: 0.019	inactive: -0.006	inactive: -0.049	inactive: -0.102	inactive: 0.047	inactive: -0.042	inactive: 0.161	inactive: -0.101	inactive: 0.246	inactive: -0.06	inactive: 0	inactive: -0.053	inactive: 0.109		
RSPRY1 (UniProt Q96DX4)	inactive: -0.037	inactive: 0.11	inactive: 0.02	inactive: -0.006	inactive: 0.067	inactive: 0.012	inactive: 0.083	inactive: 0.033	inactive: 0.052	inactive: -0.05	inactive: 0.012	inactive: -0.037	inactive: -0.036	inactive: 0.01	inactive: 0.007	inactive: -0.049	inactive: 0.093	inactive: -0.039		
SACM1L (UniProt Q9NTJ5)	inactive: 0.026	inactive: 0	inactive: 0.062	inactive: -0.094	inactive: -0.065	inactive: 0.005	inactive: -0.055	inactive: -0.096	inactive: -0.011	inactive: -0.022	inactive: 0.044	inactive: -0.002	inactive: 0.012	inactive: 0.012	inactive: -0.009	inactive: 0	inactive: -0.024	inactive: -0.002		
SEC23IP (UniProt Q9Y6Y8)	inactive: 0.142	inactive: -0.238	inactive: 0.055	inactive: 0.039	inactive: -0.212	inactive: 0.074	inactive: 0.043	inactive: -0.166	inactive: -0.23	inactive: 0.036	inactive: -0.017	inactive: -0.061	inactive: -0.143	inactive: -0.026	inactive: 0.148	inactive: 0.009	inactive: -0.057	inactive: 0.014		
RRP9 (UniProt O43818)	inactive: -0.05	inactive: 0.084	inactive: -0.2	inactive: 0.031	inactive: 0.056	inactive: -0.054	inactive: 0.063	inactive: 0.12	inactive: -0.02	inactive: -0.103	inactive: 0.046	inactive: -0.042	inactive: 0.106	inactive: -0.107	inactive: -0.062	inactive: -0.102	inactive: 0.074	inactive: -0.046		
S100PBP (UniProt Q96BU1)	inactive: -0.022	inactive: 0.125	inactive: 0.03	inactive: -0.425	inactive: -0.026		inactive: 0.043	inactive: 0.049	inactive: -0.046	inactive: 0.132	inactive: 0.017	inactive: -0.104		inactive: 0.017	inactive: -0.015	inactive: -0.075	inactive: 0.07	inactive: -0.037		inactive: 0
SDHC (UniProt Q99643)	inactive: -0.304	inactive: 0.08	active: 0.457	inactive: -0.045	inactive: -0.023	inactive: -0.111	inactive: -0.086	inactive: 0.047	inactive: 0	inactive: -0.127	inactive: 0.007	inactive: 0.068	inactive: 0.028	inactive: -0.056	inactive: -0.011	inactive: -0.024	inactive: 0.211	inactive: 0.02		
SCG3 (UniProt Q8WXD2)	inactive: -0.069	inactive: 0.074	inactive: -0.089	inactive: -0.109	inactive: -0.101	inactive: -0.194	inactive: 0.124	inactive: 0.171	inactive: 0.075	inactive: -0.027	inactive: 0.172	inactive: -0.098	inactive: 0.151	inactive: -0.032	inactive: 0.147	inactive: -0.037	inactive: 0.044	inactive: -0.01		
RTN3 isoform 5 (UniProt O95197)	inactive: 0.037	inactive: 0.061	inactive: 0.443	inactive: -0.009		inactive: 0.086	inactive: -0.02	inactive: 0.068	inactive: 0.048		inactive: -0.024	inactive: 0.07	inactive: -0.292	inactive: -0.084	inactive: 0.109	inactive: -0.04	inactive: -0.353	inactive: -0.021	inactive: 0.291	inactive: 0.082
RRP12 (UniProt Q5JTH9)	inactive: -0.056	inactive: -0.074	inactive: -0.242	active: 0.811	inactive: 0.074	inactive: 0.053	inactive: 0.203	inactive: -0.172	inactive: 0.01	inactive: -0.036	inactive: -0.082	inactive: 0.088	inactive: -0.028	inactive: 0.184	inactive: -0.136	inactive: -0.123	inactive: -0.035	inactive: -0.096		
SAE1 (UniProt Q9UBE0)	inactive: 0.05	inactive: 0.093	inactive: 0.032	inactive: -0.059	inactive: -0.043	inactive: 0.034	inactive: -0.054	inactive: 0.097	inactive: -0.021	inactive: 0.015	inactive: 0.041	inactive: -0.019	inactive: -0.011	inactive: 0.004	inactive: -0.008	inactive: 0.019	inactive: -0.06	inactive: 0.127	inactive: 0	inactive: 0.073
SAMD4B (UniProt Q5PRF9)	inactive: -0.102	active: -0.527	inactive: -0.036	inactive: 0.009	inactive: -0.135	inactive: 0.029	inactive: 0.073	inactive: -0.082	inactive: -0.436	inactive: 0.125	inactive: -0.167	inactive: -0.312	inactive: -0.296	inactive: 0.002	inactive: -0.072	inactive: -0.042	inactive: 0.09			
RSRC1 (UniProt Q96IZ7)	inactive: 0.007	inactive: -0.059	inactive: 0.027	active: -0.386	inactive: 0.176	inactive: -0.034	inactive: 0.051	inactive: 0.037	inactive: 0.042	inactive: -0.05	inactive: 0.06	active: -2.01	inactive: 0.028	inactive: -0.024	inactive: 0.003	inactive: -0.021	inactive: 0.038	inactive: 0.012		
RTN4 isoform 2 (UniProt Q9NQC3)	inactive: 0.05	inactive: 0.055	inactive: 0.121	inactive: 0	inactive: -0.001	inactive: -0.016	inactive: 0.057	inactive: -0.043	inactive: -0.135	inactive: 0.112			inactive: 0.16		inactive: -0.058	inactive: 0.058	inactive: 0.025		inactive: 0.116	inactive: -0.015
RRP7A (UniProt Q9Y3A4)	inactive: 0.008	inactive: 0.045	inactive: -0.03	inactive: 0.295			inactive: 0.005	inactive: 0.082	inactive: -0.022		inactive: 0.109	inactive: -0.046		inactive: -0.261	inactive: -0.055	inactive: -0.12	inactive: 0.092	inactive: -0.334		inactive: 0.298

2 records picked at random from the list so far:
Target	log2 fold change [1]	log2 fold change (crizotinib)	log2 fold change [2]	log2 fold change [3]	log2 fold change (gandotinib)	log2 fold change [4]	log2 fold change (doramapimod)	log2 fold change (ispinesib)	log2 fold change (bafetinib)	log2 fold change [5]	log2 fold change (nilotinib)	log2 fold change [6]	log2 fold change (dasatinib)	log2 fold change [7]	log2 fold change [8]	log2 fold change [9]	log2 fold change (tipifarnib)	log2 fold change (mubritinib)	log2 fold change (duvelisib)	log2 fold change (tozasertib)
SCAF8 isoform 2 (UniProt Q9UPN6)	inactive: 0.085	inactive: -0.011	inactive: 0.1	inactive: -0.018	inactive: -0.098	inactive: 0.065	inactive: 0.003	inactive: -0.181	inactive: -0.024	inactive: 0.019	inactive: -0.032	inactive: -0.208	inactive: -0.212	inactive: 0.069	inactive: 0.064	inactive: 0.008	inactive: -0.027	inactive: 0.023		
SCG3 (UniProt Q8WXD2)	inactive: -0.069	inactive: 0.074	inactive: -0.089	inactive: -0.109	inactive: -0.101	inactive: -0.194	inactive: 0.124	inactive: 0.171	inactive: 0.075	inactive: -0.027	inactive: 0.172	inactive: -0.098	inactive: 0.151	inactive: -0.032	inactive: 0.147	inactive: -0.037	inactive: 0.044	inactive: -0.01		
